Data as given in PubChem BioAssay AID1259254 (NCATS, 2017).

Purpose: 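Genome-wide screen for genes that prevent DNA re-replication in cancer cells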 (primary screen)
System: human HCT116 colorectal cancer cells
Knock-down reagent: single siRNA against human genes
Duration: 3 days
Measured: 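Nuclei stained with Hoechst and imaged; cell-cycle phase assigned by DNA content; G2 share scaled per plate, non-targeting siRNA 0%, GMNN siRNA 100%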
Direction: G2 robust z-score and G2 cells, % of GMNN control: higher = more G2 cells, more excess DNA replication; raw share of cells in G2: higher = larger share of cells with G2 DNA content
Active means: 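Active siRNAs have a G2 robust z of 5 or more median absolute deviations over the median, which in these data means about 38% or higher of GMNN control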
Here is one part, drawn at random, of about 59,000 reagents. Of all reagents, about 1,550 (2.6%) are marked active. 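G2 share is only a proxy for re-replication; each gene was hit by three separate siRNAs, and active genes were retested.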 The raw values are shown without normalisation. Reagents against one gene are numbered here. Not stated in the record: the amount of reagent.

no.	gene knocked down	reagent no.	G2 robust z-score	G2 cells, % of GMNN control	raw share of cells in G2 (%)	outcome
1	TRAK1 (GeneID 22906)	1	-0.996	-4.04	2.18	inactive
2	TRAK1 (GeneID 22906)	2	-0.225	1.38	6.6	inactive
3	TRAK1 (GeneID 22906)	3	0.592	7.13	6.33	inactive
4	PCMTD2 (GeneID 55251)	1	0.261	4.81	8.54	inactive
5	PCMTD2 (GeneID 55251)	2	0.0423	3.26	5.61	inactive
6	PCMTD2 (GeneID 55251)	3	2.21	18.5	12.1	inactive
7	NEGR1 (GeneID 257194)	1	-0.363	0.412	4.85	inactive
8	NEGR1 (GeneID 257194)	2	3.91	30.5	17.5	inactive
9	NEGR1 (GeneID 257194)	3	0.459	6.2	8.91	inactive
10	SLC20A1 (GeneID 6574)	1	4.7	36	16.9	inactive
11	SLC20A1 (GeneID 6574)	2	-0.00253	2.95	4.93	inactive
12	SLC20A1 (GeneID 6574)	3	-0.934	-3.6	4.47	inactive
13	F2RL1 (GeneID 2150)	1	8.83	65.1	23.2	active
14	F2RL1 (GeneID 2150)	2	-1.07	-4.58	4.2	inactive
15	F2RL1 (GeneID 2150)	3	-0.932	-3.59	3.26	inactive
16	MIOX (GeneID 55586)	1	1.79	15.6	10.8	inactive
17	MIOX (GeneID 55586)	2	-1.13	-4.97	4.25	inactive
18	MIOX (GeneID 55586)	3	-0.211	1.48	4.97	inactive
19	VEGFC (GeneID 7424)	1	0.74	8.17	9.05	inactive
20	VEGFC (GeneID 7424)	2	0.608	7.25	6.86	inactive
21	VEGFC (GeneID 7424)	3	-1.2	-5.48	2.22	inactive
22	ANKLE2 (GeneID 23141)	1	1.12	10.8	9.24	inactive
23	ANKLE2 (GeneID 23141)	2	-0.975	-3.89	2.53	inactive
24	ANKLE2 (GeneID 23141)	3	0.599	7.18	5.86	inactive
25	ABCB6 (GeneID 10058)	1	0.349	5.42	7.25	inactive
26	ABCB6 (GeneID 10058)	2	0.477	6.32	7.32	inactive
27	ABCB6 (GeneID 10058)	3	-0.56	-0.972	2.87	inactive
28	POR (GeneID 5447)	1	-1.07	-4.57	2.93	inactive
29	POR (GeneID 5447)	2	-0.442	-0.145	4.93	inactive
30	POR (GeneID 5447)	3	-1.29	-6.11	2.11	inactive
31	LINC00312 (GeneID 29931)	1	-0.364	0.41	4.01	inactive
32	LINC00312 (GeneID 29931)	2	1.88	16.2	10.7	inactive
33	LINC00312 (GeneID 29931)	3	0.264	4.83	4.77	inactive
34	CTNNAL1 (GeneID 8727)	1	2.88	23.2	13	inactive
35	CTNNAL1 (GeneID 8727)	2	-1.2	-5.49	3.34	inactive
36	CTNNAL1 (GeneID 8727)	3	0.681	7.76	8.06	inactive
37	MAP2K5 (GeneID 5607)	1	0.323	5.24	7.34	inactive
38	MAP2K5 (GeneID 5607)	2	-0.18	1.7	5.98	inactive
39	MAP2K5 (GeneID 5607)	3	-0.14	1.98	4.72	inactive
40	SERAC1 (GeneID 84947)	1	2.8	22.7	14.7	inactive
41	SERAC1 (GeneID 84947)	2	0.836	8.85	7.82	inactive
42	SERAC1 (GeneID 84947)	3	-0.142	1.97	6.59	inactive

4 entries from above, ordered by “raw share of cells in G2 (%)”, highest first.
gene knocked down	reagent no.	G2 robust z-score	G2 cells, % of GMNN control	raw share of cells in G2 (%)	outcome
NEGR1 (GeneID 257194)	2	3.91	30.5	17.5	inactive
PCMTD2 (GeneID 55251)	3	2.21	18.5	12.1	inactive
PCMTD2 (GeneID 55251)	2	0.0423	3.26	5.61	inactive
NEGR1 (GeneID 257194)	1	-0.363	0.412	4.85	inactive

The list goes on:
no.	gene knocked down	reagent no.	G2 robust z-score	G2 cells, % of GMNN control	raw share of cells in G2 (%)	outcome
43	GSDMC (GeneID 56169)	1	-0.3	0.854	4.68	inactive
44	GSDMC (GeneID 56169)	2	0.0888	3.59	6.18	inactive
45	GSDMC (GeneID 56169)	3	-0.523	-0.71	2.8	inactive
46	CT55P2 (GeneID 650024)	1	0.924	9.47	7.44	inactive
47	CT55P2 (GeneID 650024)	2	-0.896	-3.34	1.94	inactive
48	CT55P2 (GeneID 650024)	3	1.24	11.7	6.24	inactive
49	STYXL1 (GeneID 51657)	1	0.566	6.95	7.05	inactive
50	STYXL1 (GeneID 51657)	2	-1.14	-5.05	2.78	inactive
51	STYXL1 (GeneID 51657)	3	1.07	10.5	6.67	inactive
52	GORASP1 (GeneID 64689)	1	1.12	10.9	9.31	inactive
53	GORASP1 (GeneID 64689)	2	4.42	34.1	19.9	inactive
54	GORASP1 (GeneID 64689)	3	1.4	12.8	6.08	inactive
55	HORMAD2 (GeneID 150280)	1	-1.41	-6.98	1.49	inactive
56	HORMAD2 (GeneID 150280)	2	1.86	16	7.87	inactive
57	HORMAD2 (GeneID 150280)	3	4.62	35.5	15.4	inactive
58	NOS3 (GeneID 4846)	1	-0.474	-0.367	3.07	inactive
59	NOS3 (GeneID 4846)	2	-0.995	-4.03	3.8	inactive
60	NOS3 (GeneID 4846)	3	-0.953	-3.74	3.99	inactive
61	TP53 (GeneID 7157)	1	-0.053	2.59	4.49	inactive
62	TP53 (GeneID 7157)	2	-0.865	-3.12	3.39	inactive
63	TP53 (GeneID 7157)	3	1.02	10.1	6.79	inactive
64	CARF (GeneID 79800)	1	-0.542	-0.843	4.09	inactive
65	CARF (GeneID 79800)	2	0.187	4.28	6.18	inactive
66	CARF (GeneID 79800)	3	1.68	14.8	6.42	inactive
67	CARF (GeneID 79800)	4	0.229	4.58	5.38	inactive
68	CARF (GeneID 79800)	5	-0.471	-0.349	3.15	inactive
69	CARF (GeneID 79800)	6	-0.281	0.99	3.43	inactive
